{"source": "patent EP1764134B1", "about": "“Purine derivatives linked to arylpiperazines” (Spectrum Pharmaceuticals, Inc., priority 2001, dated 2003)", "system": "mice", "assay": "Conditioned avoidance testing (CAR, active avoidance)", "assay_type": "in vivo", "conditions": "S.C. 20 minutes before the test session", "experimental": "Training: Consists of 20 trials with variable inter-trial intervals (Trained to 80% Avoidance Criteria). After a one-minute acclimation period, the house light and an acoustic 90dB tone (conditioned stimuli) are presented. A response (crossing to dark compartment) within 5 seconds ends the trial and trial is recorded as avoidance response (CAR). […] To avoid shock, animals learn to move from the lighted side of the chamber to the dark side when the cue is presented (avoidance) or moved when the shock is administered (escape).Testing: Vehicle or test compounds are administered S.C. 20 minutes before the test session. (Checking for disruption of cognition and attention) Table 3. Conditioned Avoidance Responding", "note": "At least one structure is not confirmed: it was looked up by name or label, or the drawing left a doubt."}
{"smiles": "CN1CCN(C2=Nc3cc(Cl)ccc3Nc3ccccc32)CC1", "note": "[Clozapine, clozapine, reference compound]", "values": [{"measurement": "Conditioned Avoidance Responding: effect on avoidance (in words)", "value": "Significant reduction in avoidance"}, {"measurement": "Conditioned Avoidance Responding: effect on latency (in words)", "value": "Significant increase in latency"}]}
